Values from PubChem BioAssay AID504793 (Drosophila RNAi Screening Center, 2011)
Assay: 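Whole-genome screen for parts of the DNA damage checkpoint at G2/M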 (primary screen). Cell system: Drosophila S2R+ cells. Reagent: long dsRNA against Drosophila genes, about 0.25 µg dsRNA per well. Timing: 4 days of dsRNA, then 4 hours of drug before read-out. Treatment: doxorubicin 0.5 µM for 4 hours to cause double-strand breaks, in cells also given a low, harmless dose of dsRNA against nbs to sensitise the assay. Measured: 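Mitotic index as the number of phospho-histone H3-positive cells in each well following doxorubicin, given as raw counts without normalisation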. Scale: mitotic cells: higher = more cells in mitosis, weaker G2 arrest. Active means: 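a call needs confirmation in secondary tests, with other dsRNAs and a check of mitotic timing without damage, not just a high primary count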. Calls: active = confirmed in follow-up tests; inactive = not confirmed.
The screen tested about 23,000 reagents; this is a random part of those that have a named target and a result. Of all reagents, 62 (0.27%) are marked active. 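Calls come from follow-up tests whose scores are not deposited, so confirmed genes may have low counts here; counts are not normalised per plate.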 The raw values are shown without normalisation. A plus sign joins genes that one reagent is predicted to hit.

After knock-down of crol [SID104183306], the screen gave mitotic cells, replicate 1 = 6; inactive. For crol [SID104201124], the entry reads mitotic cells, replicate 1 = 13; inactive. Depletion of crol [SID104205344] resulted in: mitotic cells, replicate 1 = 7; inactive. Depletion of Strn-Mlck [SID104184824] gave: mitotic cells, replicate 1 = 5; inactive. Strn-Mlck [SID104187263] showed mitotic cells, replicate 1 = 11; inactive. CG32603 [SID104199201] scored mitotic cells, replicate 1 = 16; inactive.

Against CG32603 [SID104201293], the values are mitotic cells, replicate 1 = 8; inactive. After knock-down of CG32603 [SID104203786], the record shows mitotic cells, replicate 1 = 6; inactive. For CG1889 + CG43386 [SID104197771], the values are mitotic cells, replicate 1 = 9; inactive. CG4975 + CG4984 [SID104203416] showed mitotic cells, replicate 1 = 5; inactive. Knock-down of CG12644 (retired record) [SID104197642] came out at: mitotic cells, replicate 1 = 4; inactive. Prx6c + CG12896 + Prx6b [SID104185940] showed mitotic cells, replicate 1 = 6; inactive.

With knock-down of Prx6c + CG12896 + Prx6b [SID104206655], the screen gave mitotic cells, replicate 1 = 3; inactive. Against BomS1 [SID104202071], the entry reads mitotic cells, replicate 1 = 8; inactive. AMPKalpha [SID104198506] showed mitotic cells, replicate 1 = 33; inactive. With knock-down of AMPKalpha [SID104206599] the results were mitotic cells, replicate 1 = 7; inactive. Depletion of CG11322 [SID104181934] resulted in: mitotic cells, replicate 1 = 6; inactive. CG11322 [SID104203278] gave mitotic cells, replicate 1 = 6; inactive.

Against ERp44 [SID104200007], the entry reads mitotic cells, replicate 1 = 5; inactive. After knock-down of CG2604 [SID104192105], the screen gave mitotic cells, replicate 1 = 5; inactive. Knock-down of CG2604 [SID104208463] came out at: mitotic cells, replicate 1 = 9; inactive. After knock-down of CG31792 [SID104182396], the record shows mitotic cells, replicate 1 = 2; inactive. Est-P [SID104190955] gave mitotic cells, replicate 1 = 5; inactive. Against Est-P [SID104216727], the entry reads mitotic cells, replicate 1 = 4; inactive.
